Laboratory results: PubChem BioAssay AID1508600 (Functional Genomics Laboratory (NCATS/FGL), 2020)
Hit rate of the full screen: of about 53,000 sequences, about 3,700 (7%) were called active.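 The calls were made as follows: active = gene knockdowns whose robust z-score for IL-1 alpha signal is at least 2 or at most -2, so actives lie on both sides; inactive = the rest.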 The list shows a part of the results.

assay: Components of the Cytosolic LPS Sensing Pathway: Gene Identification via Genome-wide siRNA Screen; conditions: RAW264.7 macrophages, IL-1a HTRF, actives lie on both sides, screened at 100 nM (by protocol), cells primed 5 h with Pam3CSK4 first;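 also: robust z of the log signal after scaling to non-targeting control siRNA wells of the plate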
Summary of the method: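 Read-out: IL-1a HTRF on supernatant, divided by plate negative-control median ×100, log-transformed and converted to robust z-score. Cells were RAW264.7 given 100 nM siRNA, Pam3CSK4-primed 5 hours, then LipidA-transfected 24 hour.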

Sequence | z-score
GGAGGAAGAGAUUUUAAACTT against Rps8 | inactive: 0.158
GGGCACAGGAUCGUAUGAATT against Ncs1 | inactive: 0.187
GGACAACAAAUUUCGACUATT against Trappc6b | inactive: 0.111
GGUUUUUUAAGUUCAGCCGTT against Got2 | inactive: -0.748
GCCCAGAAUGCAAGAAAUATT against Scgb2b26 | inactive: 0.112
GGUUUUCAUAAAUCUCAGCTT against Tns4 | inactive: -0.291
GGGAUUCUGUCCUUGGUCATT against Havcr2 | inactive: -1.04
CCGUUUACCAACCAAGAAUTT against Tnfrsf17 | inactive: 0.0608
GGCUGCCAGUCAACUUUCUTT against Krtap14 | inactive: 0.371
GCUUAAACUACAGCCCGAGTT against Spag5 | inactive: -0.907
GCUUUGACUACGAGGAUUATT against Ets1 | inactive: -0.15
GGGUUUUAGAAUUGCUCUUTT against Tst | inactive: 0.109
GGACCUGUCUGAAGACUUGTT against Asf1a | inactive: 0.341
CGAUCUUGAUUAGUUUCAUTT against Plp1 | inactive: 1.42
GCGAGUUGGAAUUGAGAUCTT against Casp8 | inactive: 0.273
GCUACACCAUUGUAAGAAGTT against Gypa | inactive: 0.587
GGCUACUUCAUGCUGUAUATT against Bcs1l | inactive: 0.785
GGAUGUCCCGAAGCUAAGGTT against Ggnbp1 | inactive: 0.321
GGAAGAAGUAGAGAUGCUATT against Myl6 | inactive: 1.78
GCUCUGUCCAUUCCAUAAGTT against Crispld1 | inactive: 0.27
GGAAAACCAUGAAGCCAUGTT against Dnase1l3 | inactive: 0.69
GCAGAAUAGCUGAUGACAGTT against Galnt15 | inactive: -0.155
GCAACGGAGGGUCAUUUCATT against Wipf2 | active: 2.54
GGAGAGUAACAAUUAUGAATT against Pcdha9 | inactive: 0.983
GGCAACAAAAAAAUCCCAATT against Cd160 | inactive: -0.647
GCUAGUUUGACAGAGGCCUTT against Prelp | inactive: -0.404
GGAAGUAGGAGAGGAAAGUTT against D930020B18Rik | inactive: 0.766
GGGCAUGUAUCCGAUUAGATT against Tprgl | inactive: 0.171
GGACUCCAAACCUAAGUGATT against Rpl39l | inactive: -0.464

Part of the list above, in markdown.

| Sequence | z-score |
| --- | --- |
| GGGAUUCUGUCCUUGGUCATT against Havcr2 | inactive: -1.04 |
| CCGUUUACCAACCAAGAAUTT against Tnfrsf17 | inactive: 0.0608 |
| GGCUGCCAGUCAACUUUCUTT against Krtap14 | inactive: 0.371 |
| GCUUAAACUACAGCCCGAGTT against Spag5 | inactive: -0.907 |
| GCUUUGACUACGAGGAUUATT against Ets1 | inactive: -0.15 |
| GGGUUUUAGAAUUGCUCUUTT against Tst | inactive: 0.109 |
| GGACCUGUCUGAAGACUUGTT against Asf1a | inactive: 0.341 |
| CGAUCUUGAUUAGUUUCAUTT against Plp1 | inactive: 1.42 |
